Test results: doi:10.1101/059964
Results are given in words; binding and its absence hold for the method and conditions named. In cells and extracts the contact can be indirect. Here binding means that the protein was enriched with, or labelled near, the bait; the list need not be complete. One block for each binder: values may come before it.

The chains behind the UniProt entries cited, without tags or fusion partners.
UniProt P63208: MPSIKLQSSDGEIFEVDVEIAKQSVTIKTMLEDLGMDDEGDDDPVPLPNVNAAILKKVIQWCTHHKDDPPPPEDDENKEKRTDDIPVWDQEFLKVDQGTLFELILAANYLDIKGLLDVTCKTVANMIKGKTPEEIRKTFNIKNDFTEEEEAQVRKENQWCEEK
UniProt Q9BSM1: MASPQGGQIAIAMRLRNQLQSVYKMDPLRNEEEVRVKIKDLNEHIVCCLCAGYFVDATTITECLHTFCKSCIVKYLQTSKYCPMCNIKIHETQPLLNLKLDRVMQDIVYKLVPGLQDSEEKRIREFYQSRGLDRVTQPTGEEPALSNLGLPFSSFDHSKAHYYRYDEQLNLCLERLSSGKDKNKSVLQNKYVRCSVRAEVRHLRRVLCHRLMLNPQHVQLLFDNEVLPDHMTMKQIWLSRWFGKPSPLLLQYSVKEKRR
UniProt P35226: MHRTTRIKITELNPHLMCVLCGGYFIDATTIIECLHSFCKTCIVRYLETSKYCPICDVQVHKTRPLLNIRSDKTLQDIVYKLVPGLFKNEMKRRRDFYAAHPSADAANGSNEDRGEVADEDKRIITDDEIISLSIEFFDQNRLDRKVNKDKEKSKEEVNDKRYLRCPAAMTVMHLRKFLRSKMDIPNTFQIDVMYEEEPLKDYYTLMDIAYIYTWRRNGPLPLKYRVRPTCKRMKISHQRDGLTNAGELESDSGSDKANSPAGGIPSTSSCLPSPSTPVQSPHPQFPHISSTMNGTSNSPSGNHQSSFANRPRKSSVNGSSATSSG
UniProt O95931: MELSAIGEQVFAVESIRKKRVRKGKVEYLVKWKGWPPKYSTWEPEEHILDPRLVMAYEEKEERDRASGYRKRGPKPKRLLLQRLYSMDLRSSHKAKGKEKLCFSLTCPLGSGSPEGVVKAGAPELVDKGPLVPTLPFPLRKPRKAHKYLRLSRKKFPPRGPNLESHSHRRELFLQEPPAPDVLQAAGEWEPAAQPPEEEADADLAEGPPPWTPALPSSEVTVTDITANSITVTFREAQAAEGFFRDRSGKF
UniProt Q14781: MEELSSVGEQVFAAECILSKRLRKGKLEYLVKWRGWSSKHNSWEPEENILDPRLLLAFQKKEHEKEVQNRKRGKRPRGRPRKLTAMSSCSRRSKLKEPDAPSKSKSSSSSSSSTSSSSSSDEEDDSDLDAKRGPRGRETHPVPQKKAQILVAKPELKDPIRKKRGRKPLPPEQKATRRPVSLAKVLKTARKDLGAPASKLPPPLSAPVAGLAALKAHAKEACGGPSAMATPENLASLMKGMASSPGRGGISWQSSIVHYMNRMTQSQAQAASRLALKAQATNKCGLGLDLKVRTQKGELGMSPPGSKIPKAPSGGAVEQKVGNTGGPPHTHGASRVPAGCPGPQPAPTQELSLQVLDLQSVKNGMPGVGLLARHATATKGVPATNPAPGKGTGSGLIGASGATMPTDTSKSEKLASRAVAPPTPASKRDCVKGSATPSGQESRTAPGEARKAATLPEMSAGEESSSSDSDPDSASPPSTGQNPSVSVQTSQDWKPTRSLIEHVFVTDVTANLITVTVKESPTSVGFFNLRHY

Legend:
Experiment in all cases: affinity purification with mass spectrometry
SKP1 (human) = SKP1 (human) (UniProt P63208)
PCGF1 (human) = PCGF1 (human) (UniProt Q9BSM1)
PCGF4 (human) = PCGF4 (human) (UniProt P35226)
CBX7 (human) = CBX7 (human) (UniProt O95931)
PHC3 (human) = biological target: T1, PHC3 (human) (UniProt Q8NDX5)
T1 sequence: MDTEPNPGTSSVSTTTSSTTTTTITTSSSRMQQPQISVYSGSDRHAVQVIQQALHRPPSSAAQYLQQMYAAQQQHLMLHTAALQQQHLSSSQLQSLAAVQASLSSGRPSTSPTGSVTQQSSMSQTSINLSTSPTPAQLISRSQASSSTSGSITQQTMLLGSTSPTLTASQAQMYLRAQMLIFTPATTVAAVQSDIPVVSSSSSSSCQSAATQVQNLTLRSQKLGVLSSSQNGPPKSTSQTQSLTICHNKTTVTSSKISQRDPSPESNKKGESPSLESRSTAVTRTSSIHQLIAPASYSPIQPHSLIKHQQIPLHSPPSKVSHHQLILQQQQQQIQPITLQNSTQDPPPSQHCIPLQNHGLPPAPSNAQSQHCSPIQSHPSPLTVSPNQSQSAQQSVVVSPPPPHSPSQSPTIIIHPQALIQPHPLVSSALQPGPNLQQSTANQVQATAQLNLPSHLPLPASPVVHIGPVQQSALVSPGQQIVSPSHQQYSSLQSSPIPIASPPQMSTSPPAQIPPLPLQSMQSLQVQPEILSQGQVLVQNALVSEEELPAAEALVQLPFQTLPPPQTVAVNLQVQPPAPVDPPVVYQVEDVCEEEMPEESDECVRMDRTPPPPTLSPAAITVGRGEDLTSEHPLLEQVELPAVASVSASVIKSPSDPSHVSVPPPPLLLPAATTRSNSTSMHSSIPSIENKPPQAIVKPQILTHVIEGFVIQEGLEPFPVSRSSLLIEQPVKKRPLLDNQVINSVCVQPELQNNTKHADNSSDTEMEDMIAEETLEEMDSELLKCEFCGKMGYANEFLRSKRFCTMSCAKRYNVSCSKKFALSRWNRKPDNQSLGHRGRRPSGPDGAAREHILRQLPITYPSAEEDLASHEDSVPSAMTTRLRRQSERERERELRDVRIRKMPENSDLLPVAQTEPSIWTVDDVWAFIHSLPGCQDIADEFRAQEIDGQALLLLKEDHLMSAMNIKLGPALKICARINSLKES

CBX6 (human) = biological target: T2, CBX6 (human) (UniProt O95503)
T2 sequence: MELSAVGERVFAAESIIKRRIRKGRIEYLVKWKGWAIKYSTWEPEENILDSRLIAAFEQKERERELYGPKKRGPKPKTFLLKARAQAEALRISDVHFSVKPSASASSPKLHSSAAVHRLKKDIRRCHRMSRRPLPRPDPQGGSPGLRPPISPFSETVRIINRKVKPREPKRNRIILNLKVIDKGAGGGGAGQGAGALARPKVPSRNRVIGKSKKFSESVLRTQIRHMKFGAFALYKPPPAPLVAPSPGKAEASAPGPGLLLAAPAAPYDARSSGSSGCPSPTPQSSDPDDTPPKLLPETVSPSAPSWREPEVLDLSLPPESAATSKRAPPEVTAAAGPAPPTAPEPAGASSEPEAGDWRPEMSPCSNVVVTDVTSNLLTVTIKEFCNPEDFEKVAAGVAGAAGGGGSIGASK

CBX2 (human) = CBX2 (human) (UniProt Q14781)
EZH1 (human), Q92800 = biological target: T3, EZH1 (human), Q92800; details: remark: other sources report otherwise
T3 chain: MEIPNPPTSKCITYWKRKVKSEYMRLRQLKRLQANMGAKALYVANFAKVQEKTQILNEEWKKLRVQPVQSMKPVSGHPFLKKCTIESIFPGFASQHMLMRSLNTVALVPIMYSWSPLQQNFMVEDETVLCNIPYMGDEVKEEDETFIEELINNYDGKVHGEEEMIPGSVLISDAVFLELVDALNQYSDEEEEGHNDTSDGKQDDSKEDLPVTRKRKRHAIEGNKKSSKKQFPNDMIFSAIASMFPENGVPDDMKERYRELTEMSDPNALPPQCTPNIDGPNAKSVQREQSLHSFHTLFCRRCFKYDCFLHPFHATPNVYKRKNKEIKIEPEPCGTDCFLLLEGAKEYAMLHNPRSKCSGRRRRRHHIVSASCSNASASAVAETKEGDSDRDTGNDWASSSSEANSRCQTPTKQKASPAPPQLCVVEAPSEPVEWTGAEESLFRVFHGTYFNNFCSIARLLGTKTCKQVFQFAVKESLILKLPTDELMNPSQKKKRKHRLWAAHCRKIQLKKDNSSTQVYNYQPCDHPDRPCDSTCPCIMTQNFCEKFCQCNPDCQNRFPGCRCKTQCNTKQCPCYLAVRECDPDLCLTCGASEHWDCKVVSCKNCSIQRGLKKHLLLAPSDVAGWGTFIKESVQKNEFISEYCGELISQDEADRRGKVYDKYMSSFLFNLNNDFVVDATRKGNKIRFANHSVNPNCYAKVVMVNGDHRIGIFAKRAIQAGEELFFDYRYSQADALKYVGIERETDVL

SUZ12 (human), Q15022 = details: remark: other sources report otherwise
EED (human), O75530 = details: remark: other sources report otherwise

- binding (SKP1 (human)): binds
- binding (PCGF1 (human)): binds
B1: KDM2B (protein, UniProt Q8NHM5 1-1336)
chain: MAGPQMGGSAEDHPPRKRHAAEKQKKKTVIYTKCFEFESATQRPIDRQRYDENEDLSDVEEIVSVRGFSLEEKLRSQLYQGDFVHAMEGKDFNYEYVQREALRVPLIFREKDGLGIKMPDPDFTVRDVKLLVGSRRLVDVMDVNTQKGTEMSMSQFVRYYETPEAQRDKLYNVISLEFSHTKLEHLVKRPTVVDLVDWVDNMWPQHLKEKQTEATNAIAEMKYPKVKKYCLMSVKGCFTDFHIDFGGTSVWYHVFRGGKIFWLIPPTLHNLALYEEWVLSGKQSDIFLGDRVERCQRIELKQGYTFFIPSGWIHAVYTPVDSLVFGGNILHSFNVPMQLRIYEIEDRTRVQPKFRYPFYYEMCWYVLERYVYCVTQRSHLTQEYQRESMLIDAPRKPSIDGFSSDSWLEMEEEACDQQPQEEEEKDEEGEGRDRAPKPPTDGSTSPTSTPSEDQEALGKKPKAPALRFLKRTLSNESEESVKSTTLAVDYPKTPTGSPATEVSAKWTHLTEFELKGLKALVEKLESLPENKKCVPEGIEDPQALLEGVKNVLKEHADDDPSLAITGVPVVTWPKKTPKNRAVGRPKGKLGPASAVKLAANRTTAGARRRRTRCRKCEACLRTECGECHFCKDMKKFGGPGRMKQSCIMRQCIAPVLPHTAVCLVCGEAGKEDTVEEEEGKFNLMLMECSICNEIIHPGCLKIKESEGVVNDELPNCWECPKCNHAGKTGKQKRGPGFKYASNLPGSLLKEQKMNRDNKEGQEPAKRRSECEEAPRRRSDEHSKKVPPDGLLRRKSDDVHLRKKRKYEKPQELSGRKRASSLQTSPGSSSHLSPRPPLGSSLSPWWRSSLTYFQQQLKPGKEDKLFRKKRRSWKNAEDRMALANKPLRRFKQEPEDELPEAPPKTRESDHSRSSSPTAGPSTEGAEGPEEKKKVKMRRKRRLPNKELSRELSKELNHEIQRTENSLANENQQPIKSEPESEGEEPKRPPGICERPHRFSKGLNGTPRELRHQLGPSLRSPPRVISRPPPSVSPPKCIQMERHVIRPPPISPPPDSLPLDDGAAHVMHREVWMAVFSYLSHQDLCVCMRVCRTWNRWCCDKRLWTRIDLNHCKSITPLMLSGIIRRQPVSLDLSWTNISKKQLSWLINRLPGLRDLVLSGCSWIAVSALCSSSCPLLRTLDVQWVEGLKDAQMRDLLSPPTDNRPGQMDNRSKLRNIVELRLAGLDITDASLRLIIRHMPLLSKLHLSYCNHVTDQSINLLTAVGTTTRDSLTEINLSDCNKVTDQCLSFFKRCGNICHIDLRYCKQVTKEGCEQFIAEMSVSVQFGQVEEKLLQKLS

- binding (PCGF4 (human)): binds
- binding (CBX7 (human)): binds
- binding (PHC3 (human)): binds
- binding (CBX6 (human)): binds
- binding (CBX2 (human)): binds
B2: NUFP2 (Nuclear fragile X mental retardation interacting protein 2) (protein, UniProt Q7Z417 1-695)
chain: MEEKPGQPQPQHHHSHHHPHHHPQQQQQQPHHHHHYYFYNHSHNHHHHHHHQQPHQYLQHGAEGSPKAQPKPLKHEQKHTLQQHQETPKKKTGYGELNGNAGEREISLKNLSSDEATNPISRVLNGNQQVVDTSLKQTVKANTFGKAGIKTKNFIQKNSMDKKNGKSYENKSGENQSVDKSDTIPIPNGVVTNNSGYITNGYMGKGADNDGSGSESGYTTPKKRKARRNSAKGCENLNIVQDKIMQQETSVPTLKQGLETFKPDYSEQKGNRVDGSKPIWKYETGPGGTSRGKPAVGDMLRKSSDSKPGVSSKKFDDRPKGKHASAVASKEDSWTLFKPPPVFPVDNSSAKIVPKISYASKVKENLNKTIQNSSVSPTSSSSSSSSTGETQTQSSSRLSQVPMSALKSVTSANFSNGPVLAGTDGNVYPPGGQPLLTTAANTLTPISSGTDSVLQDMSLTSAAVEQIKTSLFIYPSNMQTMLLSTAQVDLPSQTDQQNLGDIFQNQWGLSFINEPSAGPETVTGKSSEHKVMEVTFQGEYPATLVSQGAEIIPSGTEHPVFPKAYELEKRTSPQVLGSILKSGTTSESGALSLEPSHIGDLQKADTSSQGALVFLSKDYEIESQNPLASPTNTLLGSAKEQRYQRGLERNDSWGSFDLRAAIVYHTKEMESIWNLQKQDPKRIITYNEAMDSPDQ

- binding (EZH1 (human), Q92800): binds
- binding (SUZ12 (human), Q15022): binds
- binding (EED (human), O75530): binds
B3: RBBP7, Q16576 1-425 (protein)
chain: MASKEMFEDTVEERVINEEYKIWKKNTPFLYDLVMTHALQWPSLTVQWLPEVTKPEGKDYALHWLVLGTHTSDEQNHLVVARVHIPNDDAQFDASHCDSDKGEFGGFGSVTGKIECEIKINHEGEVNRARYMPQNPHIIATKTPSSDVLVFDYTKHPAKPDPSGECNPDLRLRGHQKEGYGLSWNSNLSGHLLSASDDHTVCLWDINAGPKEGKIVDAKAIFTGHSAVVEDVAWHLLHESLFGSVADDQKLMIWDTRSNTTSKPSHLVDAHTAEVNCLSFNPYSEFILATGSADKTVALWDLRNLKLKLHTFESHKDEIFQVHWSPHNETILASSGTDRRLNVWDLSKIGEEQSAEDAEDGPPELLFIHGGHTAKISDFSWNPNEPWVICSVSEDNIMQIWQMAENIYNDEESDVTTSELEGQGS
